No constants are given. Whether binding was seen depends on the method and setting. Some binding calls cover weakened binding; strength is not graded here.
Legend:
[1] = target: human LILRB4 expressed on cells (human) (UniProt Q8NHJ6); test: flow cytometry on human primary monocytes and THP-1 cells (FIG. 32)
[2] = target: human LILRB4 expressed on cells (human) (UniProt Q8NHJ6); test: flow cytometry on human primary monocytes, THP-1 GFP cells and CHO RB4 cells; axis log(conc) without unit

The chains behind the UniProt entries cited, without tags or fusion partners. Residues count along the entry.
UniProt Q8NHJ6, residues 22-448: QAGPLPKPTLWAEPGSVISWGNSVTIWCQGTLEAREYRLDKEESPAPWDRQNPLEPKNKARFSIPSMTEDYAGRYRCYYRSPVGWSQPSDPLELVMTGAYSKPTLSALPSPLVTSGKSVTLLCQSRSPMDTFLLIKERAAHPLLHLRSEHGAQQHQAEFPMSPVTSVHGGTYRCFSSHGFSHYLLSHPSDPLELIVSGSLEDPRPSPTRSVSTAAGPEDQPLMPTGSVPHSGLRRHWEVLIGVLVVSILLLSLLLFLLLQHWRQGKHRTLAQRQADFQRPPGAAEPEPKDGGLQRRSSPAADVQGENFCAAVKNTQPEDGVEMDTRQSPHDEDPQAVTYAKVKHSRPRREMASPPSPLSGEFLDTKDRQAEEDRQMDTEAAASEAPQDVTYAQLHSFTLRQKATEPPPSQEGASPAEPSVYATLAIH

B1: H7K3m5 scFv, VhVl configuration (scFv)
scFv: EVQLVESGGGLVQPGGSLRLSCAASGFSLSSSYWISWVRQAPGKGLEWIGSIDSGSVGITYYATWVKGRFTISRDNSKNTLYLQMNSLRAEDTAVYYCARHGDNWALDLWGQGTLVTVSSGGGGSGGGGSGGGGSDIQMTQSPSTLSASVGDRVTITCRASQSISSWLAWYQQKPGKAPKLLIYKASTLASGVPSRFSGSGSGTEFTLTISSLQPDDFATYYCQHGYIRGDLDNVFGGGTKVEIK
- binding [1]: binds
- binding [2]: binds

From patent publication US20230340114A1
